Measured values as given in PubChem BioAssay (NCATS).
“And” between values parts separate entries of the source, which are not always exact repeats. Identical values can stand only once. The inconclusive results got no clear call from the source; some entries with a clear call stand among them for comparison. The source made the active and inactive calls. Calls follow the shape of the dose curve; as a rule, active = well fitted curve in either direction with a large enough effect (not every such curve was filed as active); inconclusive = small, poorly fitted or top-dose-only effect, or another doubt; inactive = flat fitted curve, though single readings scatter.

Test: Stat Signaling Pathway (AID 446)
Details: ME-180 SIE beta-lactamase reporter, IL-6 stimulated, 5 h; at 7.69 µM (top of the series)
Procedure: NCGC Assay Overview: The IL-6/STAT signaling pathway was assayed in ME-180 cervical carcinoma cells by a beta-lactamase reporter gene controlled by a STAT Inducible Element (SIE). This reporter is induced by IL-6 at 40 pM AC50 and inhibited by the pan JAK inhibitor, 2-(1,1-Dimethylethyl)-9-fluoro-3,6-dihydro-7H-benz[h]-imidaz[4,5-f]isoquinolin-7-one, at approximately 10 nM AC50. Plated cells were incubated overnight and on the following day, stimulated with 40 pM IL-6 for 5 hrs. The assay was screened at the AC50 of IL-6 activation to identify both inhibitors and activators of IL-6/STAT signaling.
NCGC Assay Protocol Summary: Cells were trypsinized, washed in assay medium (AM, OPTI MEM with 0.5% fetal bovine serum, 0.1 mM nonessential amino acids, 1 mM sodium pyruvate, 10mM HEPES pH 7.3, 100U/ml penicillin, and 100 ug/ml streptomycin) and suspended at 6 x 10e5/ml in AM. Approximately […] cells in 5 uL/well was dispensed into 1536 well plates and the cells were incubated overnight at 37 C. 23 nL of compound were delivered by a pin tool and 1 uL of IL-6 (40 pM final concentration in AM) was added. After centrifugation at 1000 rpm for less than a minute, plates were incubated at 37C for 5 hrs. One uL of detector mix (LiveBLAzerTM, Invitrogen) was added, the plates incubated at room temperature for 2.5 hrs, and fluorescence intensity at 460 and 530 nm emission was measured at 405 nm excitation by an Envision (Perkin Elmer) or Safire II (Tecan). Data were normalized by GeneData to the controls for AC90 stimulation (300 pM IL-6) and to AC90 inhibition (125 nM Jak inhibitor, 40 pM IL-6 in AM).
% is scaled to controls: 0 for no effect and ±100 for the full control effect.

Structure (SMILES) | activity, negative = inhibition
c1cnc2c(c1)ccc1cccnc12 | inconclusive: 13.4% [activator]
NCCSSCCN | inactive: -10%

Same assay, conditions: ME-180 SIE beta-lactamase reporter, IL-6 stimulated, 5 h; at 17.2 µM (top of the series)

Structure (SMILES) | activity, negative = inhibition
O=c1cc(-c2ccccc2)oc2cc(O)cc(O)c12 | inconclusive: -98.4% [inhibitor]
CC(C)Oc1ccc2c(=O)c(-c3ccccc3)coc2c1 | inactive: 0.931%
O=c1c(O)c(-c2ccc(O)c(O)c2)oc2cc(O)cc(O)c12 | inconclusive: -46% [inhibitor]
O=c1cc(-c2ccc(O)cc2)oc2cc(O)cc(O)c12 | active: -101%
CCC(=C(CC)c1ccc(O)cc1)c1ccc(O)cc1 | inconclusive: -46.6% [inhibitor]
Cc1cc2cc3c(C)cc(=O)oc3c(C)c2o1 | inconclusive: 4.22% [inhibitor]
CN(C(=O)C(Cl)Cl)c1ccc(OC(=O)c2ccco2)cc1 | inactive: 2.62% and inactive: 10.6%
CCN(CC)C(=S)SSC(=S)N(CC)CC | inconclusive: -77% [inhibitor]
O=c1c(O)c(-c2ccc(O)cc2)oc2cc(O)cc(O)c12 | inconclusive: -60.8% [inhibitor]
Cc1[nH]c(=O)c(C#N)cc1-c1ccncc1 | inactive: -1.17%
O=C(Nc1ccc([N+](=O)[O-])cc1Cl)c1cc(Cl)ccc1O | inconclusive: -28.4% [inhibitor]

Same assay, conditions: ME-180 (cervical carcinoma) SIE beta-lactamase reporter, IL-6 stimulated, 5 h; at 38 µM (top of the series)

Structure (SMILES) | activity, negative = inhibition
O=C1C(SCCO)=C(SCCO)C(=O)c2ccccc21 | active: 134%
Nc1c(S(=O)(=O)O)cc(Nc2ccc(Nc3nc(Cl)nc(Nc4ccc(S(=O)(=O)O)cc4)n3)c(S(=O)(=O)O)c2)c2c1C(=O)c1ccccc1C2=O | inconclusive: -36% [inhibitor]
CCc1cccc(N(C)C(N)=Nc2cccc3ccccc23)c1 | inconclusive: 86.9% [activator]
N#C/C(=C\c1ccc(O)c(O)c1)C(=O)c1ccc(O)c(O)c1 | inconclusive: -47.7% [inhibitor]
O=c1[nH]c(=O)c2nc3ccccc3nc2[nH]1 | inconclusive: -6.88% [inhibitor]
Cc1cc(O)c2c(c1)C(=O)c1cc(O)cc(O)c1C2=O | inconclusive: -1.28% [inhibitor]
Nc1ccc(N2C(=O)c3ccccc3C2=O)c(Cl)c1 | inconclusive: 8.68% [inhibitor]
O=Nc1c(-c2c(O)[nH]c3ccccc23)[nH]c2ccccc12 | active: -75%
Cn1cc(C2=C(c3ccc(Cl)cc3Cl)C(=O)NC2=O)c2ccccc21 | inconclusive: -65.5% [inhibitor]
O=c1c(O)c(-c2ccc(O)c(O)c2)oc2cc(O)cc(O)c12 | inconclusive: -60.8% [inhibitor]
CCCn1cnc2c1c(=O)n(CCCCC(C)=O)c(=O)n2C | inactive: 10.7%
O=c1onc2cnc3ccccc3n12 | inconclusive: 79% [activator]
O=c1cc(-c2ccc(O)cc2)oc2cc(O)cc(O)c12 | inconclusive: -48.2% [inhibitor]
NCCSSCCN | inactive: -21.5%
CNCC[C@H](Oc1ccc(C(F)(F)F)cc1)c1ccccc1 | inconclusive: -43% [inhibitor]
O=C(O)c1cccnc1Nc1cccc(C(F)(F)F)c1 | inconclusive: -34.4% [inhibitor]
O=c1[nH]c2ccccc2n1CCCN1CCN(C(c2ccccc2)c2ccccc2)CC1 | inconclusive: -38% [inhibitor]
C=Cc1c(C)c2cc3[nH]c(cc4nc(cc5nc(cc1[nH]2)C(C)=C5CCC(=O)O)C(CCC(=O)O)=C4C)c(C)c3C=C | inconclusive: -53.8% [inhibitor]
C[C@H](Cc1ccc(O)c(O)c1)[C@@H](C)Cc1ccc(O)c(O)c1 | inconclusive: -31.8% [inhibitor]
CC(C)c1ccc2c(c1)c(SC(C)(C)C)c(CC(C)(C)C(=O)O)n2Cc1ccc(Cl)cc1 | inconclusive: -66.8% [inhibitor]
CCN(CC)C(=S)SSC(=S)N(CC)CC | inconclusive: -57% [inhibitor]
N#C/C(=C\c1ccc(O)c(O)c1)C(=O)Nc1ccccc1 | inconclusive: -40.3% [inhibitor]
O=c1c2ccccc2nc2n1CCc1c-2[nH]c2ccccc12 | inactive: 1.69%
Cc1[nH]c(=O)c(C#N)cc1-c1ccncc1 | inactive: 9%
N=C(N)SCCc1cnc[nH]1 | inconclusive: -34% [inhibitor]
O=C(Nc1ccc([N+](=O)[O-])cc1Cl)c1cc(Cl)ccc1O | inconclusive: -36.3% [inhibitor]
COc1cccc(-c2cc(=O)c3ccccc3o2)c1N | inconclusive: 44.2% [activator]
